Experimental data published in US8871807B2, “Detergents capable of cleaning, bleaching, sanitizing and/or disinfecting textiles including sulfoperoxycarboxylic acids” (Ecolab USA Inc., priority 2008, dated 2014).

Experiment: Bleaching study of sulfonated peracids, Terg-o-tometer, % soil removal
Details: for SR (%) Red Wine on 100% cotton / SR (%) Tea on 100% cotton / SR (%) Tea on cotton-poly blend: 50 ppm available oxygen, 100° F., pH 7, 5 grain hard water, 20 minute; for SR (%) Red Wine on 100% cotton, compared to the POAA control / SR (%) Tea on 100% cotton, compared to the POAA control / SR (%) Tea on cotton-poly blend, compared to the POAA control: difference to equimolar peroxyacetic acid

CC(=O)OO [POAA, peroxyacetic acid]
SR (%) Red Wine on 100% cotton: 68% | SR (%) Tea on 100% cotton: 50% | SR (%) Tea on cotton-poly blend: 42% | SR (%) Red Wine on 100% cotton, compared to the POAA control: 0% | SR (%) Tea on 100% cotton, compared to the POAA control: 0% | SR (%) Tea on cotton-poly blend, compared to the POAA control: 0%

O=C(CS(=O)(=O)O)OO [Compound 2-SPOAA, 2-Sulfoperoxyacetic acid]
SR (%) Red Wine on 100% cotton: 46% | SR (%) Tea on 100% cotton: 4% | SR (%) Tea on cotton-poly blend: −2% | SR (%) Red Wine on 100% cotton, compared to the POAA control: −22% | SR (%) Tea on 100% cotton, compared to the POAA control: −46% | SR (%) Tea on cotton-poly blend, compared to the POAA control: −44%
